Measurements reported in PMC9963772.

Protein sequences, listed by entry. Tags and fused reporters are not part of them. Lines headed by an entry give the natural chain unless they say otherwise; changes in a name come on top.
UniProt C1G3N5: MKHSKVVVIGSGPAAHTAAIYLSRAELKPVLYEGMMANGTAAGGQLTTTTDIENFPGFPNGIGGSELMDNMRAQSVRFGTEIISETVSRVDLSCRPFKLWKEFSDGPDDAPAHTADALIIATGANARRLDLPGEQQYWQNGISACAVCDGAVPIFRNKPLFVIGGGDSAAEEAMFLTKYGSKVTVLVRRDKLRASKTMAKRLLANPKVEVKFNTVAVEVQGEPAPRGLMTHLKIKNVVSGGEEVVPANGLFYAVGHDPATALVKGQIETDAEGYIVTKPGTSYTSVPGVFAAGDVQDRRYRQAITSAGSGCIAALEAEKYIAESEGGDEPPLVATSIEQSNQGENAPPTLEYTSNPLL
UniProt C1GJI6: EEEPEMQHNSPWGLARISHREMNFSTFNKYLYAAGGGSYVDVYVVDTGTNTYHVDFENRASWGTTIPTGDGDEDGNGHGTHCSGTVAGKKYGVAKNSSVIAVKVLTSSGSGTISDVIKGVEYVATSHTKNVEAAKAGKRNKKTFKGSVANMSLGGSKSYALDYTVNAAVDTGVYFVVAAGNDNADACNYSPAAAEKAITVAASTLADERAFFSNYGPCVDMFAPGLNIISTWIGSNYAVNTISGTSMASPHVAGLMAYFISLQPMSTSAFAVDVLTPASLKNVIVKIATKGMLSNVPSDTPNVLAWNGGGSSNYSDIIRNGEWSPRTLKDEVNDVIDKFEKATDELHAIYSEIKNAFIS
UniProt C1G7K6: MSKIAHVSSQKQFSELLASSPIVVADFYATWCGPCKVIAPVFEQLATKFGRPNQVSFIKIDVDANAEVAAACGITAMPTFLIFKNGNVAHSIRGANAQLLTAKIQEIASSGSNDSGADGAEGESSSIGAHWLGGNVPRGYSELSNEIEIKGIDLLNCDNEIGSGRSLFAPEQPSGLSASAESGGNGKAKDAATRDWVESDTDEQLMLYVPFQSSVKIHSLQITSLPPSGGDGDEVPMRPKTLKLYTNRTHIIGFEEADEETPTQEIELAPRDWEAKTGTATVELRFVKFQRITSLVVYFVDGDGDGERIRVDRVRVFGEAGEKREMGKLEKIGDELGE

T1: Copper metallochaperone Atx1 of Paracoccidioides brasiliensis, recombinant (Paracoccidioides brasiliensis) (UniProt C1G2I6)
T1 sequence: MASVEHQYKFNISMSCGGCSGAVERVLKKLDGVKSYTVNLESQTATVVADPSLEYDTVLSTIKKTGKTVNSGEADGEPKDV

B1: hypothetical protein PADG_07883 (protein, UniProt C1GL97 1-81)
chain: MGHSGFSQYRLYYGGVARVDSALSVRDGTGAGAGAGAGEAAVDVAMKRKKMNEKPDTIDQAHIHRDDDDDDDDDDDDDDND
B2: hypothetical protein PADG_04855 (protein, UniProt C1GB54 1-453)
chain: MHGEGEFDLAILASQRNDNATMGVLSPIATATATMTEPARAKTTKTTTTTTTTTTTDSSMHLPFSDSAIDMDTESSGNADQTPETTTIPTTRDTMNATGKSHLQSLTTITTTMIKERLIHLTHLITDSDSHPKPDNRHNKDQNSRNEYSNSSPYHPLTSHATSPSTSLSWSPQKSIAINRYLDGIEALLLALHITGFSSGASSEEEEEEEEEEEEEEEEEEKEVKVDRGENERKTNHCCTLSNNHHDPRLACISLEAGCQNANTKPHNQNQIQTKLDSQLDDVIRDLKVVTGSLEQRRAECLHLNAVFTMKCEKLAQRILDLEEQMEELRAKKIENTIELEGLKGTVRGLEGWIKRWKMRQCEDEEGEEGRNSKHAWSETSDHGRGQWGKPGRVLWGGDGDYDSNDGDVDDDTLMDGVSAWLRDWRDVEEGFRIRARLRERMKAVRRGPGKSE
B3: hypothetical protein PADG_00449 (protein, UniProt C1G0Q9 1-759)
chain: MYNPYQPPSPFGRPPEFGGFPGAPPGMAPPPGMSAPGTGPPPAAQQSNAQQPGRPGGFPPNFQPPPNMPNINFSAPVIRLGTSGTPKSATPVESGRERGGESGGRRGGPGGHSLESQRQNLRDAMLQLQPPTKDEIVRTIFIGGITEGLSSDEEIELILRTAGNLKRWIRATDADDKPCKFGFAEYEDPESLSTAVEVLKDVEVPVKKPVPAKEVGKVEEDPDKSKLLVIIDDSSLKYIEQFESTTERNPEAEQARLDGARAALAKVLADLTHPPSPAKVDALAQVVDSEGDSEMKDGEAEKDGTPAEVVTIPITVEDELSDIPAEMRETVAKEIAAFRERSNRRDLERLKREEELESLERARAGGSRPNRLTSPPPTAPSGPAGGANGIPLGPRDRGIPNAPSAPKGFGHHIPRDYQKGVSFVNGSGINGANEDEDTDASDEELERRRKEKRAVEAEKQYLDQERRWLNRERSRTAAVEREKNRDREEDIRLQEEKQIMAKRLREWNDDIEASRKVEEYYADRGVWIRNRAAFRNREVSMDEADRAAEEREMARTQQQRDQVRGMADDFLARQAEELETRNQVPREPQRFKLSLGAAAQKAQATVRRTVAEVEGLLEDEEDTGAATKRPLTSIKFDTAAESAGLTDEERAQAARQLAADIPSDKEGLWNWQVNWEFVDESVLGEQLKPFVEKKIMEYLGVQEQMLVDVVEEHVRKRGPPQELVEQLEGALDEEAEVLVKKLWRMIIFFSESEKRGLSG
B4: hypothetical protein PADG_03788 (protein, UniProt C1G952 1-306)
chain: MAPDRFGKSVFLGNIPYNLTEEQVKDILSSAGTVTKFRLMINPETGKPKGYGFADFADADAAASAVRNLNDYEIMGRKIRVDWPHNNEKDSVPPDYSQQSQMGMMQGMQGQDQSQPPLLPQLPPGTDLPPNLTCPNAISQTLASLPAPQLLDVITQMKSLVMADPARATELLRQAPHLAYAIFQALLLMNLVDYSVLGSVVEQASQSQPQPSQQTSQIPQQFQPYPSVPGQISTPPIQHTPFAPPTMPPQPQQQSQQQATQPQIPGHDELLQQVLNMPQSAIDALPPTERSQIMLLRQQLMQGGMR
B5: Aspartyl aminopeptidase (protein, UniProt C1GA81 1-601)
chain: MLSKLAGKSLCTARSSVSSLARESIAAHSNPARNIFFSLPHQSPPEHQHPMQPWHTMTHSRKLSSFPPLSTSTFKAQANDFLSFVNASPTPFHAVASASKRLVDAGFKEVKERDSWSSTCKPGGKYYVTRNGSTIIAFAIGQKWKPGNSISMIGAHTDSPCLRIKPVSKRTADGFVQVGVETYGGGLWHTWFDRDLGVAGRVMVRNADESIEAKLVHINRPILRIPTLAIHLERQETFSFNKETHLFPIAGLVAAELARKDKDPKAKEYLEIRSKEKKNNGNSGNNGNDAASNATFSPLKPTMERHHPFLIELIASELSTTPHDIVDFELLLYDTQKACLGGLLDEFIFSARLDNLNMSFCAIMGLINSLAQPGALDKESSIRLVALFDDEEIGSRTAQGAFSNILTAILHRLSVLPAETSASAKAPPPDLSTAYEQSLSTSFLVSADMAHSVHPNYSVKYESDHKPEMNKGPVIKINANAFYATNSPGIVILQESARLAGKNHHDDQAGSTSATSPSSETPLEGVPLQLFVVRNDSSSGSTIGPMLSASLGVRTVDLGNPQLSMHSIREMGGSNDVGYAIRLFESYFEHYTELAGKILVG

Biological target: T1, Copper metallochaperone Atx1 of Paracoccidioides brasiliensis, recombinant (Paracoccidioides brasiliensis)
Test: affinity purification with mass spectrometry; recombinant PbAtx1 immobilised on Ni-NTA resin; 300 ug P. brasiliensis (Pb18) protein extract, 2 h at 4 °C; 5 washes with 50 mM sodium phosphate, 500 mM NaCl, 20 mM imidazole, pH 8.0; eluted with 250 mM imidazole; NanoUPLC-MSE; control: resin without PbAtx1; only the target purified

Molecule | binding
Thioredoxin reductase (from UniProt C1G3N5) | binds
Mitochondrial zinc maintenance protein 1, mitochondrial | binds
Serine proteinase (from UniProt C1GJI6) | binds
Thioredoxin (from UniProt C1G7K6) | binds
B1 | binds
B2 | binds
B3 | binds
B4 | binds
B5 | binds

No constants are given. Whether binding was seen depends on the method and setting. Binding seen in cells or lysates may run through a third protein. These calls come from enrichment with a bait or labelling near it, and not all partners need be listed.
